Reference: PMC3857839
Like-named read-outs stand apart in the source and are kept apart here. Results are given in words; binding and its absence hold for the method and conditions named. For part of these data: In cells and extracts the contact can be indirect. Some entries that bind do so weakly or less than the wild type. For part of these data: Sequences can lack the tags named with a protein.

The chains behind the UniProt entries cited, without tags or fusion partners. Where a name states a change or a piece, a line headed by the entry shows the natural chain unless it says otherwise. Residues count along the entry.
UniProt P54760, 16-987: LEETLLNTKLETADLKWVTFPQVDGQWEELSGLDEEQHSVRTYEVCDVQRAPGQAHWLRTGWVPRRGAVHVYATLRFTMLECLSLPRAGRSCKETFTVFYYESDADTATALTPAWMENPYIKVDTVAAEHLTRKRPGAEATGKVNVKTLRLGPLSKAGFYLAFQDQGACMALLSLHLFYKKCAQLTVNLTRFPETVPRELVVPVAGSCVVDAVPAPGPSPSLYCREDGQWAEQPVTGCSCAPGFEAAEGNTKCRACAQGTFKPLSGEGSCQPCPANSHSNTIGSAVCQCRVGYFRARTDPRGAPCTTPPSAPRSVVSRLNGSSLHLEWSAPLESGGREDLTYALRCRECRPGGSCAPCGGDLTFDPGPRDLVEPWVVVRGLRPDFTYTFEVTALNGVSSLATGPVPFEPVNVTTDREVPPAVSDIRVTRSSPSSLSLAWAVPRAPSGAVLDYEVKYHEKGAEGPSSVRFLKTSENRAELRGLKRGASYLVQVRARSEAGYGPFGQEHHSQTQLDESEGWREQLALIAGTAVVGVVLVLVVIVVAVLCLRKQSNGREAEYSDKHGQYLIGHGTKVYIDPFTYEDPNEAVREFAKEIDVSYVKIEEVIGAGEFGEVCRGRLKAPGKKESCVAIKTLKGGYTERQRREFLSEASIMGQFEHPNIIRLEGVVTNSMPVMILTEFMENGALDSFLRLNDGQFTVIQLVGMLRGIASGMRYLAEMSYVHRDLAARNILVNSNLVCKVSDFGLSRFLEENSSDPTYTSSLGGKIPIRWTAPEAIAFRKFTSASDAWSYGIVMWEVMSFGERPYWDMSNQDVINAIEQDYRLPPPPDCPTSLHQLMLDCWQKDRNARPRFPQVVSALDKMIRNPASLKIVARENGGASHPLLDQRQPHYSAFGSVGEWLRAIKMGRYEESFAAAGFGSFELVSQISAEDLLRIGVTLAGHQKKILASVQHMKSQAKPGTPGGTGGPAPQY
UniProt P52800, 29-232: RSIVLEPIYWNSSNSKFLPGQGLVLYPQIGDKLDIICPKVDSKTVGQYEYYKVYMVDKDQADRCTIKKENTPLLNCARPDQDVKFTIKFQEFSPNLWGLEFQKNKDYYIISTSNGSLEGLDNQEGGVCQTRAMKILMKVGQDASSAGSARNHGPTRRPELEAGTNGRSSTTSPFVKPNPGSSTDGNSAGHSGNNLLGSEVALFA
UniProt P52800, 29-336: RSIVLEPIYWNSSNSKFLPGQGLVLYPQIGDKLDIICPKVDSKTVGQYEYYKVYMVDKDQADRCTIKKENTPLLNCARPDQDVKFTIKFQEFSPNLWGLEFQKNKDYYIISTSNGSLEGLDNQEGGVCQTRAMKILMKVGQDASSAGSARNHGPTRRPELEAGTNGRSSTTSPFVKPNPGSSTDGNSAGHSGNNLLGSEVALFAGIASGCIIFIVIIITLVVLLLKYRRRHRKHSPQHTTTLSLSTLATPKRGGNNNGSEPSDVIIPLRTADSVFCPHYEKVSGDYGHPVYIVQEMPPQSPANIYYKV

Assays:
[1] = molecular target: EphB4 (human (endogenous in A549)) (UniProt P54760)
EphA3 (human) [2] = molecular target: T1, EphA3 (human) (UniProt P29320)
T1 sequence: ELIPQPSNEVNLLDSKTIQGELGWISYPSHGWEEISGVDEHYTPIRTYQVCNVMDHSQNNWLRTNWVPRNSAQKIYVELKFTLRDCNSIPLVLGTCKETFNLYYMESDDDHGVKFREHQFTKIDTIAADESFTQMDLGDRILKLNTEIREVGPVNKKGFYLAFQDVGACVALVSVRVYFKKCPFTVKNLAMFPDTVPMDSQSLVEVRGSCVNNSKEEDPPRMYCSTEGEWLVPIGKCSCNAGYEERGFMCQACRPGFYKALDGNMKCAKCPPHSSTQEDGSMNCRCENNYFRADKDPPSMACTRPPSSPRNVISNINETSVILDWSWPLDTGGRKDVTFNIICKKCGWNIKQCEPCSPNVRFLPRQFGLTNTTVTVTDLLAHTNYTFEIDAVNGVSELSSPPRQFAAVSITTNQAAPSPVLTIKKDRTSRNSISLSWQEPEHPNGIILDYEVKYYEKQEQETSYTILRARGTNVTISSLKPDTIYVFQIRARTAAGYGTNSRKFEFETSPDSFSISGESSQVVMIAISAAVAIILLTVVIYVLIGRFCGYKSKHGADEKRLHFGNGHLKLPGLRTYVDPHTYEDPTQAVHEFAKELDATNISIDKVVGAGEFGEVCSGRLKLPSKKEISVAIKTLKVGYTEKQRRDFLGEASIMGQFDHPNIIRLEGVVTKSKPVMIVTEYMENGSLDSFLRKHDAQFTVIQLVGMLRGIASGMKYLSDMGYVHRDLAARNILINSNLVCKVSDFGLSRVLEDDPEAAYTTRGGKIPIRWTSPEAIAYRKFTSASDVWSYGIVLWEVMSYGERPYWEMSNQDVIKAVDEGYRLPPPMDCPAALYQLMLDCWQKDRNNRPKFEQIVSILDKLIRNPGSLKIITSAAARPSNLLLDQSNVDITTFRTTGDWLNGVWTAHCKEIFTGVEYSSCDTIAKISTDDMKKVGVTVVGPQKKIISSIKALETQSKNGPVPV

[3] = molecular target: EphB4 (human (endogenous in A549)) (UniProt P54760); remark: listed apart in the source
EphA3 Fc = molecular target: T2, EphA3 Fc (UniProt P29320); experiment: pull-down; 1 µg EphA3 Fc immobilised on GammaBind Plus sepharose beads, 1 hour at 4 °C with precleared lysates (modified RIPA buffer) of A549 or H226 cells; immunoblot with anti-dsRed antibody; only the target purified
T2 sequence: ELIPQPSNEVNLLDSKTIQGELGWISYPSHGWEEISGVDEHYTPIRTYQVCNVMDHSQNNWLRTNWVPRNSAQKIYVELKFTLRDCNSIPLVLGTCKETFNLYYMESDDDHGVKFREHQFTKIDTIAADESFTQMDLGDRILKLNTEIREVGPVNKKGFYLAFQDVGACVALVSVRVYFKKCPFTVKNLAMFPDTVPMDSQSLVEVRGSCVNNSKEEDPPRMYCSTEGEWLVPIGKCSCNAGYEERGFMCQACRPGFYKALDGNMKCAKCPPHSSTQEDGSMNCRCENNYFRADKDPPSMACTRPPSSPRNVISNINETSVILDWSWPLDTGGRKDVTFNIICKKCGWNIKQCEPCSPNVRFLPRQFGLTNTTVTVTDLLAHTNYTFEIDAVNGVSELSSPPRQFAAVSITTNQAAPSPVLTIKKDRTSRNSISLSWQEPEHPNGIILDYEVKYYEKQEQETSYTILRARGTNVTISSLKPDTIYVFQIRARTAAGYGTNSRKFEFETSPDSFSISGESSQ

[4] = molecular target: T3, full-length EphA3 G518L mutant (human) (UniProt P29320)
T3 sequence: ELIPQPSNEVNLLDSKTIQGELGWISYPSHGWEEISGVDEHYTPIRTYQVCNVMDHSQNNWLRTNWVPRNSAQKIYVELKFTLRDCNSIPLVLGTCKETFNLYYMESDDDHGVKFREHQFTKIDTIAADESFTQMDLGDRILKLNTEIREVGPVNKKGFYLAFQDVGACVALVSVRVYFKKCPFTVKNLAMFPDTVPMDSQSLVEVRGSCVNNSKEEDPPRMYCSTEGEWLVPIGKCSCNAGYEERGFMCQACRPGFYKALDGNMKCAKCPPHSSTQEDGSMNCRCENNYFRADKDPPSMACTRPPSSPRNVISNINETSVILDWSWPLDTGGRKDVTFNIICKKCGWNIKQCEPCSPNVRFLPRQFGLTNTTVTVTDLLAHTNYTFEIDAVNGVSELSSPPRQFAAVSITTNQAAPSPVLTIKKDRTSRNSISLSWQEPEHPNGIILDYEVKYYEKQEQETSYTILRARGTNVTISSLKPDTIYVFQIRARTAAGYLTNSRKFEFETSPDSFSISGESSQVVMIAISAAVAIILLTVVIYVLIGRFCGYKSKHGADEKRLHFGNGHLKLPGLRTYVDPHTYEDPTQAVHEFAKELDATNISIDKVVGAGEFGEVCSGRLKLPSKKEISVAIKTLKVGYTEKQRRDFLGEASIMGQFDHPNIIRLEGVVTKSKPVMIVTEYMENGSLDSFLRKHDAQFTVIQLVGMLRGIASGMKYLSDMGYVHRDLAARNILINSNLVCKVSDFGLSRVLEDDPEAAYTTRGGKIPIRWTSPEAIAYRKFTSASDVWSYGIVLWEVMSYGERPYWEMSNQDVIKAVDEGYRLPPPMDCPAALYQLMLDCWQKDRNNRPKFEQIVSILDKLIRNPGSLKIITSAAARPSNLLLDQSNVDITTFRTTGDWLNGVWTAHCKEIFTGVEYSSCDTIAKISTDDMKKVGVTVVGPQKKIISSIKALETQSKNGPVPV

[5] = molecular target: T4, EphA3 ΔN G518L mutant (human) (UniProt P29320); experiment: co-IP; HEK AD-293 cells lysed in Triton X-100 buffer, precleared, 3 hours at 4 °C with anti-EphA3 monoclonal antibody on GammaBind Plus sepharose beads; immunoblot with anti-ephrin-A3 antiserum
T4 sequence: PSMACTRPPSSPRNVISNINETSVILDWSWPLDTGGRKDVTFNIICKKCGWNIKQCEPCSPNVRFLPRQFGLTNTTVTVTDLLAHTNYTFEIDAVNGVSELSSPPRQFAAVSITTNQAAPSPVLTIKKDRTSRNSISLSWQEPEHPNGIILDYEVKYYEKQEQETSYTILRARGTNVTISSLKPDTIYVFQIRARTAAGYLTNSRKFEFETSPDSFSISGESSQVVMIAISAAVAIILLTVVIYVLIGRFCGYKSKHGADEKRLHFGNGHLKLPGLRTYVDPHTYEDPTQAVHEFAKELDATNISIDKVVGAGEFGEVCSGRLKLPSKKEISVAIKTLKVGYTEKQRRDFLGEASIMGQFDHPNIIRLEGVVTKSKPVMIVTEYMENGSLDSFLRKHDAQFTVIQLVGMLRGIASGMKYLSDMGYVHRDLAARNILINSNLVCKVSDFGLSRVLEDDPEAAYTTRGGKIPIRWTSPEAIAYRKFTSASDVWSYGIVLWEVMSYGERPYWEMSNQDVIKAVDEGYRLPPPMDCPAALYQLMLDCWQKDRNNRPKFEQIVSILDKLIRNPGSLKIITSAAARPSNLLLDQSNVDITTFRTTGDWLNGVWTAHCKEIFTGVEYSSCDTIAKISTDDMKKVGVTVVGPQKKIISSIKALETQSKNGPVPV

[6] = molecular target: T5, full-length EphA3 (human) (UniProt P29320); experiment: as above
T5 sequence: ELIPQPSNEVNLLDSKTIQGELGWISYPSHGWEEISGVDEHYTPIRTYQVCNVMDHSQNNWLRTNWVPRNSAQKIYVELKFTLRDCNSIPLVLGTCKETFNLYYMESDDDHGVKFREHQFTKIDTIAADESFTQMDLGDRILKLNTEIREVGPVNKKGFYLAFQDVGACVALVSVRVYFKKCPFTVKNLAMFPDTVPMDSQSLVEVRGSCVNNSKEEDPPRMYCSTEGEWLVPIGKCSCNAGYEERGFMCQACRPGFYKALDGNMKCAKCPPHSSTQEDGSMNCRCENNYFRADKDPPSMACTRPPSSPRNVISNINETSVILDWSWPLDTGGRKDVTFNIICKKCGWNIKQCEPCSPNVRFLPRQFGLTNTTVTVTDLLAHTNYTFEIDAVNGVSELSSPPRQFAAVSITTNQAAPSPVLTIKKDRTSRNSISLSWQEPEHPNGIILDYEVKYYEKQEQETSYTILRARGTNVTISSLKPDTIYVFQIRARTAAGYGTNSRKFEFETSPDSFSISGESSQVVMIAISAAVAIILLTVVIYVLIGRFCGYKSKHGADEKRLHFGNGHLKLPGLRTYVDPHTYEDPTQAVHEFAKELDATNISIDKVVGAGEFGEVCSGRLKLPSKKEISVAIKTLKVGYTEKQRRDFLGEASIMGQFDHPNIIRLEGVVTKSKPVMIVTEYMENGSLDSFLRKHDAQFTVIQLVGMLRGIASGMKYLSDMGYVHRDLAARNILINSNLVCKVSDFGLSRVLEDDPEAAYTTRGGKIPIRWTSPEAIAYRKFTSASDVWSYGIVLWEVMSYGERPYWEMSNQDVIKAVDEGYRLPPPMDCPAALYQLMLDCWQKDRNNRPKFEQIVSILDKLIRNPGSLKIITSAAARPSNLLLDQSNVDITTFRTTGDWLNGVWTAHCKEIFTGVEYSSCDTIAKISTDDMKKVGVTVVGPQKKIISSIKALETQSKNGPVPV

EphA3 ΔN (human) = molecular target: T6, EphA3 ΔN (human) (UniProt P29320); experiment: as above
T6 sequence: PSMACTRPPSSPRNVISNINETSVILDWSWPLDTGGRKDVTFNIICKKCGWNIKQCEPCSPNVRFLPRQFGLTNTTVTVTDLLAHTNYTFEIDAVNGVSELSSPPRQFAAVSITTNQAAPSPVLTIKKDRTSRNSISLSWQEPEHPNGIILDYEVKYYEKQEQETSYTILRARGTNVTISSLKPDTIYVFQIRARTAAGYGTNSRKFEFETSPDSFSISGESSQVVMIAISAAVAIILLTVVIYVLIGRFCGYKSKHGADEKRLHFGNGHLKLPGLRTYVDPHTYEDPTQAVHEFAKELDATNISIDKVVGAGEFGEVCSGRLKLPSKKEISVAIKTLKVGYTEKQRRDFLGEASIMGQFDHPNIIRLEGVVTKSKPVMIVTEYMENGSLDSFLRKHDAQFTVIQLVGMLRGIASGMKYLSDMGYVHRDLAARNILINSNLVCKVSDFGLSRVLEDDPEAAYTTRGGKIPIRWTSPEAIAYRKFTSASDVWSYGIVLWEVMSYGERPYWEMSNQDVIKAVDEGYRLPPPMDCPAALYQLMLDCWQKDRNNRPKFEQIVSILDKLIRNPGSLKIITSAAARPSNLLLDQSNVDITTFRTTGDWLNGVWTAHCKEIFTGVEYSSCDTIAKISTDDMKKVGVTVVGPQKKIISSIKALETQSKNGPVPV

EphA3 (human) [7] = molecular target: T1, EphA3 (human); remark: listed apart in the source
[8] = molecular target: T3, full-length EphA3 G518L mutant (human); remark: listed apart in the source

## ephrin-B2 AP (from UniProt P52800 29-232) (ligand)
[1]
  binding: binds
EphA3 (human) [2]
  binding: binds weakly

## EGFP-ephrin-B2 (from UniProt P52800 29-336) (ligand)
[3]
  binding: binds

B1: mCherry-ephrin-A3 (ligand, UniProt O08545 23-206)
chain: QGPGGALGNRHAVYWNSSNQHLRREGYTVQVNVNDYLDIYCPHYNSSGPGGGAEQYVLYMVNLSGYRTCNASQGSKRWECNRQHASHSPIKFSEKFQRYSAFSLGYEFHAGQEYYYISTPTHNLHWKCLRMKVFVCCASTSHSGEKPVPTLPQFTMGPNVKINVLEDFEGENPQVPKLEKSISG
EphA3 Fc
  binding: binds
[4]
  binding: binds
[5]
  binding: binds
[6]
  binding: binds
EphA3 ΔN (human)
  binding: binds
EphA3 (human) [7]
  binding: binds

B2: mCherry-ephrin-A3 E129K mutant (ligand, UniProt O08545 23-206)
chain: QGPGGALGNRHAVYWNSSNQHLRREGYTVQVNVNDYLDIYCPHYNSSGPGGGAEQYVLYMVNLSGYRTCNASQGSKRWECNRQHASHSPIKFSEKFQRYSAFSLGYKFHAGQEYYYISTPTHNLHWKCLRMKVFVCCASTSHSGEKPVPTLPQFTMGPNVKINVLEDFEGENPQVPKLEKSISG
EphA3 ΔN (human)
  binding: binds

B3: ephrin-A3 AP (ligand, UniProt O08545 23-206)
chain: QGPGGALGNRHAVYWNSSNQHLRREGYTVQVNVNDYLDIYCPHYNSSGPGGGAEQYVLYMVNLSGYRTCNASQGSKRWECNRQHASHSPIKFSEKFQRYSAFSLGYEFHAGQEYYYISTPTHNLHWKCLRMKVFVCCASTSHSGEKPVPTLPQFTMGPNVKINVLEDFEGENPQVPKLEKSISG
[8]
  binding: binds
EphA3 (human) [7]
  binding: binds
